Source: article PMC4775220

Sequences of proteins named here, by UniProt entry; tags and fusion partners are left off.
UniProt Q9UBL3: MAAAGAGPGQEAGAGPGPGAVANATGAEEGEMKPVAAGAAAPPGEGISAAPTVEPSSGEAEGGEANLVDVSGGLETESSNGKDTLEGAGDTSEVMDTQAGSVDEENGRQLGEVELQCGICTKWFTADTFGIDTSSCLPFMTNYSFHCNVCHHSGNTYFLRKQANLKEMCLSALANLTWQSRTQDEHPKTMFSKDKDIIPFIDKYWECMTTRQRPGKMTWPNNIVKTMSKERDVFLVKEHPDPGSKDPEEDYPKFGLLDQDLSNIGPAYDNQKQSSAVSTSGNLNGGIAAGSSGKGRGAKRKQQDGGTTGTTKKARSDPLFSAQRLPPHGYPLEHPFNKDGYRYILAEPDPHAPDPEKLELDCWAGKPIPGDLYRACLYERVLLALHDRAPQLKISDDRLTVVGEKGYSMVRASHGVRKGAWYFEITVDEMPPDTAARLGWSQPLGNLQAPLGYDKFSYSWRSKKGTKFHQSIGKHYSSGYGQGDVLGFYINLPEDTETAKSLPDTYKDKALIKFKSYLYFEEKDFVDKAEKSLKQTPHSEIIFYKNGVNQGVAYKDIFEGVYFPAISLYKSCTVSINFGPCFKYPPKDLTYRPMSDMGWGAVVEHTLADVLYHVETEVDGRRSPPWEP
UniProt O75533: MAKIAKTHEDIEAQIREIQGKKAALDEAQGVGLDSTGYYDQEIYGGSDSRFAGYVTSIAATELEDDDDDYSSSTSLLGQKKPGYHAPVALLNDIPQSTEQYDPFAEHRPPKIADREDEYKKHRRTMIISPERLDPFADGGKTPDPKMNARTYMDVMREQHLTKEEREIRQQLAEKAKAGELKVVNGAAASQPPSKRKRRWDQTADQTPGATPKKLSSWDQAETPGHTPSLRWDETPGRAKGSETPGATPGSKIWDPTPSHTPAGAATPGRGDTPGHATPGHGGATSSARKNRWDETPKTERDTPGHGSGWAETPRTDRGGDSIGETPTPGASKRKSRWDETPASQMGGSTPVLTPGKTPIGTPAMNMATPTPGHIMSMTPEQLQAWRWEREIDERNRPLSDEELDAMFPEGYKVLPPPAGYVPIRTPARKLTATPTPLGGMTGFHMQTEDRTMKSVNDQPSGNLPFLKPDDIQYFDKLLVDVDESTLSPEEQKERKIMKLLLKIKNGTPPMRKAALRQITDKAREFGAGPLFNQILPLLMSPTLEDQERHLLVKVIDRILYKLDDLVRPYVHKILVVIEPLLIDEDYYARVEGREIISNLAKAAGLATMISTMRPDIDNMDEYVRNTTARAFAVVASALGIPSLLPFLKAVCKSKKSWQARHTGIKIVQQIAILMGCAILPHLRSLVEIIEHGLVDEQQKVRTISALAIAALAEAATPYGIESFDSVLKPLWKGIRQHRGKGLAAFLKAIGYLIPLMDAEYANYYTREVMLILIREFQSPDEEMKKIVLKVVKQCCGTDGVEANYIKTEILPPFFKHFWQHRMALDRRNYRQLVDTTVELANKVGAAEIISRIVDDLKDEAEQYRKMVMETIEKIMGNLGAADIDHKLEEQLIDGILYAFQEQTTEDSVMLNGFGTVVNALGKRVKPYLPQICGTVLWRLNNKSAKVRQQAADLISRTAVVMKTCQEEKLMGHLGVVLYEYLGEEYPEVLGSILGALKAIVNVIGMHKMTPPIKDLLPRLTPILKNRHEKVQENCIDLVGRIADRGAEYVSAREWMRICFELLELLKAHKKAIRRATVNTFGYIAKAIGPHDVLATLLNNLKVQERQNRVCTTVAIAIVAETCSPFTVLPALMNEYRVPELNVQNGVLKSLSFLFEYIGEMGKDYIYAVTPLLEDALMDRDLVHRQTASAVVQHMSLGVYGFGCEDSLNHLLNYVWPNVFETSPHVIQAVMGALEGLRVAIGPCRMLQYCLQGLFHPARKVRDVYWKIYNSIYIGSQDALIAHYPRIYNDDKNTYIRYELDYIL

Molecular target: T1, RBM15, endogenous in 293T cells (bait of the affinity purification) (human (endogenous in 293T)) (UniProt Q96T37)
T1 sequence: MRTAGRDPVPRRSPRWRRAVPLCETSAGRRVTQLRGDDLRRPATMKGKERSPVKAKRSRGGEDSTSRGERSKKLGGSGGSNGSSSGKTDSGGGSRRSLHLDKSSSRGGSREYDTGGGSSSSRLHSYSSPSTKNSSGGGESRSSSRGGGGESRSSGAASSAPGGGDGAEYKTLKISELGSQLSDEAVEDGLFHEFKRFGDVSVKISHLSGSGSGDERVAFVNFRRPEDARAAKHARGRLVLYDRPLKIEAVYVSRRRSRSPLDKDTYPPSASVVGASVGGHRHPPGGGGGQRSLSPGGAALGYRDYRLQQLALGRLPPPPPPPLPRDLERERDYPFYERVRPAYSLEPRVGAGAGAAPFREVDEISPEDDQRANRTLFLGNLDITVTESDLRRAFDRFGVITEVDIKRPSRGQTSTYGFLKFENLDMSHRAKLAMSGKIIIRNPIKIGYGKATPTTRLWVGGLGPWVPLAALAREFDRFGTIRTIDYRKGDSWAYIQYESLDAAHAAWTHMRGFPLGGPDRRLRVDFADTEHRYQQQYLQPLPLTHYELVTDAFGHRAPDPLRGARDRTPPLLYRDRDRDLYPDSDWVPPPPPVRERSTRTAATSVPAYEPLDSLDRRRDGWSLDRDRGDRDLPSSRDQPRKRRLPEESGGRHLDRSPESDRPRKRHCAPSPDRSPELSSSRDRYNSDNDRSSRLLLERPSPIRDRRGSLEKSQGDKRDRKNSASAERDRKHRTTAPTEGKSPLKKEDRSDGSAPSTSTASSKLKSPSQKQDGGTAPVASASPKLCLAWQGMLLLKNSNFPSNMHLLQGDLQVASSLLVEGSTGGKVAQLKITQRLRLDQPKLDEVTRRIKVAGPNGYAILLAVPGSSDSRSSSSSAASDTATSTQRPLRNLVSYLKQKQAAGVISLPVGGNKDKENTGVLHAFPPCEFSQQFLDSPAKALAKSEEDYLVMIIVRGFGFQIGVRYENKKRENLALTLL
Assay: affinity purification with mass spectrometry; RBM15-associated proteins affinity purified from 293T cells, which express endogenous RBM15; mass spectrometry

Substance | binding
ASH2 (from UniProt Q9UBL3 1-628) | binds
SF3B1, endogenous in 293T cells (from UniProt O75533 1-1304) | binds

These are yes or no findings as the source states them, for the method shown. In cells and extracts the contact can be indirect. Here binding means that the protein was enriched with, or labelled near, the bait; the list need not be complete.
